Like-named read-outs stand apart in the source and are kept apart here. At least one compound was matched to its structure with a doubt left. Some of these results come from one statement about several compounds together. Peptide text beside a SMILES is read from it.
Molecular target: T1, human APJ receptor (hAPJ) (Homo sapiens, UniProt P35414)
T1 construct: expressed in transfected cells
T1 sequence (P35414 1-380): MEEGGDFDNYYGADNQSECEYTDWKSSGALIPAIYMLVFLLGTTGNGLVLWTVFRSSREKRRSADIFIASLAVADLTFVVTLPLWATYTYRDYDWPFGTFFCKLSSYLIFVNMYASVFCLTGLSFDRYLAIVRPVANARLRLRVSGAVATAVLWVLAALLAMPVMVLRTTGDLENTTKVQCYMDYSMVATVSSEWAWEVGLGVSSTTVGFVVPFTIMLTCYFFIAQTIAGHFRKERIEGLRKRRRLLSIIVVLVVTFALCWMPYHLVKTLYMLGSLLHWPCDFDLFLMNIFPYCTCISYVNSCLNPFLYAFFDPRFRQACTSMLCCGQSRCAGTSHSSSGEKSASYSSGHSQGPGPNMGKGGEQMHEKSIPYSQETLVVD
Assay: HTRF cAMP assay: inhibition of NKH477-stimulated cAMP in HEK cells stably expressing hAPJ
Assay type: cell-based
Description: HTRF cAMP Assay and IP-One Assay (Cisbio)
HTRF (homogeneous time resolved fluorescence) is a technology developed by Cisbio Bioassays based on TR-FRET (time-resolved fluorescence resonance energy transfer). Cisbio Bioassays has developed a wide selection of HTRF-based assays compatible with whole cells, thereby enabling functional assays to run under more physiological conditions. The IP-One assays are competitive immunoassays using cryptate-labeled anti-IP1 monoclonal antibody and d2-labeled IP1. IP1 is a relatively stable downstream metabolite of IP3, and accumulates in cells following Gq receptor activation.
cAMP kits based on a competitive immunoassay using cryptate-labeled anti-cAMP antibody and d2-labeled cAMP were used to assay the effects of APJ compounds of the present invention. […] Cells are treated with 1 nG/mL doxycycline and seeded in all white 96 well plates @40 k/well overnight.

[1] = read-out: EC50 (hAPJ), inhibition of cAMP production, bound stated, HTRF cAMP Assay, per data of Table 6

Structure (SMILES)	EC50 [1]	EC50 (read-out: EC50 (cAMP inhibition, hAPJ HEK), Table 6, hAPJ HEK cells, NKH477-stimulated cAMP)
CCCCCCCCCCCCCCCC(=O)N[C@H](C(=O)N[C@H](C(=O)N[C@@H](CC(=O)O)C(=O)N[C@@H](CCCNC(=N)N)C(=O)N[C@@H](CO)C(=O)N[C@@H](CO)C(=O)N[C@@H](CCC(N)=O)C(=O)N[C@@H](CCC(=O)O)C(=O)N[C@H](CCCCN)C(=O)N[C@@H](CCCNC(=N)N)C(=O)N[C@@H](CCCNC(=N)N)C(=O)N[C@@H](CO)C(=O)N[C@@H](C)C(=O)N[C@@H](CC(=O)O)C(=O)N[C@H](C(=O)N[C@@H](Cc1ccccc1)C(=O)N[C@H](C(N)=O)[C@@H](C)CC)[C@@H](C)CC)C(C)C)[C@@H](C)O [Compound 6] (HELM PEPTIDE1{[CCCCCCCCCCCCCCCC(=O)[*:2]].T.V.D.R.S.S.Q.E.[dK].R.R.S.A.D.I.F.I.[am]}$$$$V2.0)	≤ 50 nM	
CCCCCCCCCCCCCCCC(=O)N[C@H](C(=O)N[C@H](C(=O)N[C@@H](Cc1ccccc1)C(=O)N[C@@H](CCCNC(=N)N)C(=O)N[C@@H](CO)C(=O)N[C@@H](CO)C(=O)N1CCC[C@H]1C(=O)N[C@@H](CCC(=O)O)C(=O)N[C@H](CCCCN)C(=O)N[C@@H](CCCNC(=N)N)C(=O)N[C@@H](CCCNC(=N)N)C(=O)N[C@@H](CO)C(=O)N[C@@H](C)C(=O)N[C@@H](CC(=O)O)C(=O)N[C@H](C(=O)N[C@@H](Cc1ccccc1)C(=O)N[C@H](C(N)=O)[C@@H](C)CC)[C@@H](C)CC)C(C)C)[C@@H](C)O [Compound 25] (HELM PEPTIDE1{[CCCCCCCCCCCCCCCC(=O)[*:2]].T.V.F.R.S.S.P.E.[dK].R.R.S.A.D.I.F.I.[am]}$$$$V2.0)	≤ 50 nM	
CCCCCCCCCCCCCCCC(=O)N[C@H](C(=O)N[C@H](C(=O)N[C@@H](Cc1ccccc1)C(=O)N(C)[C@@H](CCCNC(=N)N)C(=O)N[C@@H](CO)C(=O)N[C@@H](CO)C(=O)N[C@@H](CCC(=O)O)C(=O)N[C@H](CCCCN)C(=O)N[C@@H](CCCNC(=N)N)C(=O)N[C@@H](CCCNC(=N)N)C(=O)N[C@@H](CO)C(=O)N[C@@H](C)C(=O)N[C@@H](CC(=O)O)C(=O)N[C@H](C(=O)N[C@@H](Cc1ccccc1)C(=O)N[C@H](C(N)=O)[C@@H](C)CC)[C@@H](C)CC)C(C)C)[C@@H](C)O [Compound 31] (HELM PEPTIDE1{[CCCCCCCCCCCCCCCC(=O)[*:2]].T.V.F.[meR].S.S.E.[dK].R.R.S.A.D.I.F.I.[am]}$$$$V2.0)	≤ 50 nM	34 nM
CCCCCCCCCCCCCCCC(=O)N[C@H](C(=O)N[C@H](C(=O)N[C@@H](Cc1ccccc1)C(=O)N[C@@H](CCCNC(=N)N)C(=O)N[C@@H](CO)C(=O)N[C@@H](CO)C(=O)N[C@@H](CCC(=O)O)C(=O)N1CCC[C@H]1C(=O)N[C@H](CCCCN)C(=O)N[C@@H](CCCNC(=N)N)C(=O)N[C@@H](CCCNC(=N)N)C(=O)N[C@@H](CO)C(=O)N[C@@H](C)C(=O)N[C@@H](CC(=O)O)C(=O)N[C@H](C(=O)N[C@@H](Cc1ccccc1)C(=O)N[C@H](C(N)=O)[C@@H](C)CC)[C@@H](C)CC)C(C)C)[C@@H](C)O [Compound 27] (HELM PEPTIDE1{[CCCCCCCCCCCCCCCC(=O)[*:2]].T.V.F.R.S.S.E.P.[dK].R.R.S.A.D.I.F.I.[am]}$$$$V2.0)	≤ 50 nM	
CCCCCCCCCCCCCCCC(=O)N[C@H](C(=O)N[C@H](C(=O)N[C@@H](CC(=O)O)C(=O)N[C@@H](CCCNC(=N)N)C(=O)N[C@@H](CO)C(=O)N[C@@H](CO)C(=O)N[C@@H](CCCCN)C(=O)N[C@@H](CCC(=O)O)C(=O)N[C@H](CCCCN)C(=O)N[C@@H](CCCNC(=N)N)C(=O)N[C@@H](CCCNC(=N)N)C(=O)N[C@@H](CO)C(=O)N[C@@H](C)C(=O)N[C@@H](CC(=O)O)C(=O)N[C@H](C(=O)N[C@@H](Cc1ccccc1)C(=O)N[C@H](C(N)=O)[C@@H](C)CC)[C@@H](C)CC)C(C)C)[C@@H](C)O [Compound 7] (HELM PEPTIDE1{[CCCCCCCCCCCCCCCC(=O)[*:2]].T.V.D.R.S.S.K.E.[dK].R.R.S.A.D.I.F.I.[am]}$$$$V2.0)	≤ 50 nM	
CCCCCCCCCCCCCCCC(=O)N[C@H](C(=O)N[C@H](C(=O)N[C@@H](Cc1ccccc1)C(=O)N[C@@H](CCCNC(=N)N)C(=O)N[C@@H](CO)C(=O)N[C@@H](CO)C(=O)N[C@@H](CCC(=O)O)C(=O)N[C@H](C)C(=O)N[C@@H](CCCNC(=N)N)C(=O)N[C@@H](CCCNC(=N)N)C(=O)N[C@@H](CO)C(=O)N[C@@H](C)C(=O)N[C@@H](CC(=O)O)C(=O)N[C@H](C(=O)N[C@@H](Cc1ccccc1)C(=O)N[C@H](C(N)=O)[C@@H](C)CC)[C@@H](C)CC)C(C)C)[C@@H](C)O [Compound 10] (HELM PEPTIDE1{[CCCCCCCCCCCCCCCC(=O)[*:2]].T.V.F.R.S.S.E.[dA].R.R.S.A.D.I.F.I.[am]}$$$$V2.0)	≤ 50 nM	
CCCCCCCCCCCCCCCC(=O)N[C@H](C(=O)N[C@H](C(=O)N[C@@H](Cc1ccccc1)C(=O)N[C@@H](CCCNC(=N)N)C(=O)N[C@@H](CO)C(=O)N[C@@H](CO)C(=O)N[C@@H](CCC(=O)O)C(=O)N[C@H](CCCN)C(=O)N[C@@H](CCCNC(=N)N)C(=O)N[C@@H](CCCNC(=N)N)C(=O)N[C@@H](CO)C(=O)N[C@@H](C)C(=O)N[C@@H](CC(=O)O)C(=O)N[C@H](C(=O)N[C@@H](Cc1ccccc1)C(=O)N[C@H](C(N)=O)[C@@H](C)CC)[C@@H](C)CC)C(C)C)[C@@H](C)O [Compound 8] (HELM PEPTIDE1{[CCCCCCCCCCCCCCCC(=O)[*:2]].T.V.F.R.S.S.E.[NCCC[C@@H](N[*:1])C(=O)[*:2]].R.R.S.A.D.I.F.I.[am]}$$$$V2.0)	≤ 50 nM	
CCCCCCCCCCCCCCCC(=O)N[C@@H](CC(=O)O)C(=O)N[C@H](C(=O)N[C@@H](Cc1c[nH]cn1)C(=O)N[C@@H](CCCNC(=N)N)C(=O)N[C@@H](CO)C(=O)N[C@@H](CO)C(=O)N[C@@H](CCC(=O)O)C(=O)N[C@H](CCCCN)C(=O)N[C@@H](CCCNC(=N)N)C(=O)N[C@@H](CCCNC(=N)N)C(=O)N[C@@H](CO)C(=O)N[C@@H](C)C(=O)N[C@@H](CC(=O)O)C(=O)N[C@H](C(=O)N[C@@H](Cc1ccccc1)C(=O)N[C@H](C(N)=O)[C@@H](C)CC)[C@@H](C)CC)C(C)C [Compound 35] (HELM PEPTIDE1{[CCCCCCCCCCCCCCCC(=O)[*:2]].D.V.H.R.S.S.E.[dK].R.R.S.A.D.I.F.I.[am]}$$$$V2.0)	≤ 50 nM	
CCCCCCCCCCCCCCCC(=O)N[C@H](C(=O)N[C@H](C(=O)N1CCC[C@H]1C(=O)N[C@@H](Cc1ccccc1)C(=O)N[C@@H](CCCNC(=N)N)C(=O)N[C@@H](CO)C(=O)N[C@@H](CO)C(=O)N[C@@H](CCC(=O)O)C(=O)N1CCC[C@H]1C(=O)N[C@H](CCCCN)C(=O)N[C@@H](CCCNC(=N)N)C(=O)N[C@@H](CCCNC(=N)N)C(=O)N[C@@H](CO)C(=O)N[C@@H](C)C(=O)N[C@@H](CC(=O)O)C(=O)N[C@H](C(=O)N[C@@H](Cc1ccccc1)C(=O)N[C@H](C(N)=O)[C@@H](C)CC)[C@@H](C)CC)C(C)C)[C@@H](C)O [Compound 1] (HELM PEPTIDE1{[CCCCCCCCCCCCCCCC(=O)[*:2]].T.V.P.F.R.S.S.E.P.[dK].R.R.S.A.D.I.F.I.[am]}$$$$V2.0)	≤ 50 nM	
CCCCCCCCCCCCCCCC(=O)N[C@H](C(=O)N[C@H](C(=O)N[C@@H](CC(=O)O)C(=O)N(C)[C@@H](CCCNC(=N)N)C(=O)N[C@@H](CO)C(=O)N[C@@H](CO)C(=O)N[C@@H](CCC(=O)O)C(=O)N[C@H](CCCCN)C(=O)N[C@@H](CCCNC(=N)N)C(=O)N[C@@H](CCCNC(=N)N)C(=O)N[C@@H](CO)C(=O)N[C@@H](C)C(=O)N[C@@H](CC(=O)O)C(=O)N[C@H](C(=O)N[C@@H](Cc1ccccc1)C(=O)N[C@H](C(N)=O)[C@@H](C)CC)[C@@H](C)CC)C(C)C)[C@@H](C)O [Compound 32] (HELM PEPTIDE1{[CCCCCCCCCCCCCCCC(=O)[*:2]].T.V.D.[meR].S.S.E.[dK].R.R.S.A.D.I.F.I.[am]}$$$$V2.0)	≤ 50 nM	
CCCCCCCCCCCCCCCC(=O)N[C@H](C(=O)N1CCC[C@H]1C(=O)N[C@H](C(=O)N[C@@H](Cc1ccccc1)C(=O)N[C@@H](CCCNC(=N)N)C(=O)N[C@@H](CO)C(=O)N[C@@H](CO)C(=O)N1CCC[C@H]1C(=O)N[C@@H](CCC(=O)O)C(=O)N[C@H](CCCCN)C(=O)N[C@@H](CCCNC(=N)N)C(=O)N[C@@H](CCCNC(=N)N)C(=O)N[C@@H](CO)C(=O)N[C@@H](C)C(=O)N[C@@H](CC(=O)O)C(=O)N[C@H](C(=O)N[C@@H](Cc1ccccc1)C(=O)N[C@H](C(N)=O)[C@@H](C)CC)[C@@H](C)CC)C(C)C)[C@@H](C)O [Compound 2] (HELM PEPTIDE1{[CCCCCCCCCCCCCCCC(=O)[*:2]].T.P.V.F.R.S.S.P.E.[dK].R.R.S.A.D.I.F.I.[am]}$$$$V2.0)	≤ 50 nM	
CCCCCCCCCCCCCCCC(=O)N[C@H](C(=O)N[C@H](C(=O)N[C@@H](CCCCN)C(=O)N[C@@H](CCCNC(=N)N)C(=O)N[C@@H](CO)C(=O)N[C@@H](CO)C(=O)N[C@@H](CCC(=O)O)C(=O)N[C@H](CCCCN)C(=O)N[C@@H](CCCNC(=N)N)C(=O)N[C@@H](CCCNC(=N)N)C(=O)N[C@@H](CO)C(=O)N[C@@H](C)C(=O)N[C@@H](CC(=O)O)C(=O)N[C@H](C(=O)N[C@@H](Cc1ccccc1)C(=O)N[C@H](C(N)=O)[C@@H](C)CC)[C@@H](C)CC)C(C)C)[C@@H](C)O [Compound 21] (HELM PEPTIDE1{[CCCCCCCCCCCCCCCC(=O)[*:2]].T.V.K.R.S.S.E.[dK].R.R.S.A.D.I.F.I.[am]}$$$$V2.0)	≤ 50 nM	
